Assay results from PMC7496687.
No constants are given. Whether binding was seen depends on the method and setting. In cells and extracts the contact can be indirect. Binding can be weak; no strength is given.

By UniProt entry, the sequences of proteins in these tests, tags left out. Where a name states a change or a piece, a line headed by the entry shows the natural chain unless it says otherwise.
UniProt P70604: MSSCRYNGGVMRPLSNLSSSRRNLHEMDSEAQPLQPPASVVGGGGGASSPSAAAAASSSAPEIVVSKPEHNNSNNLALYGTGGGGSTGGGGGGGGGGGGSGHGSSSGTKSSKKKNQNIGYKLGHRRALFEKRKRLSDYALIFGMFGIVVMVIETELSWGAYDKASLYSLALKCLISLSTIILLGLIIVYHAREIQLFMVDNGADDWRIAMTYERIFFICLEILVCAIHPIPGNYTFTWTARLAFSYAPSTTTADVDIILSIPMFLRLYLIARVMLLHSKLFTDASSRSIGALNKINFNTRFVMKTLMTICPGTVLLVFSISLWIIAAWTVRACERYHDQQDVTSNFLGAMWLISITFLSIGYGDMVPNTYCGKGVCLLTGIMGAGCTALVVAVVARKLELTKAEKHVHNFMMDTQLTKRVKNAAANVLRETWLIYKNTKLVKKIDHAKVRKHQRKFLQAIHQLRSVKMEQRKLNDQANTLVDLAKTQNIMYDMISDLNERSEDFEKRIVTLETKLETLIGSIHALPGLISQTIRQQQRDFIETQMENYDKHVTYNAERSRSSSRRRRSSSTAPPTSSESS
UniProt P63331: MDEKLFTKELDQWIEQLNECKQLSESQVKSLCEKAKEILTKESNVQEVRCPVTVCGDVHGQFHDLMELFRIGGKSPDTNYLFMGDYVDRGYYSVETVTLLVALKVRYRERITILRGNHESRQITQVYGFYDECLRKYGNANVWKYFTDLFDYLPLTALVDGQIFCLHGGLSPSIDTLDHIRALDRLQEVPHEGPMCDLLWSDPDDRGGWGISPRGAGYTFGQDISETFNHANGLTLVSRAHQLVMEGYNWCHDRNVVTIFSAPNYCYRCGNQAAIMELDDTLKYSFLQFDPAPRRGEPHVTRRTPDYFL

Target: small-conductance Ca2+-activated K+ channel SK2 (rat (endogenous in rat ventricular myocytes)) (UniProt P70604)
Assay: co-IP; SK2 immunoprecipitated with anti-SK2 antibody (Sigma SAB2501396, 5 μg) from lysates of freshly isolated Sham and TAB rat ventricular myocytes, 2 h at 4°C, Catch and Release v2.0 Kit; normal mouse IgG as negative control; analysed by immunoblotting

binding: binds
Substance: protein phosphatase 2A C subunit (PP2A-C) (from UniProt P63331) (enzyme)
